Most values lie at the floor of the assay. Slopes are relative: functional sequences can read slightly below zero.
The substances below were run on Saccharomyces cerevisiae PS128 hsf1 delta, HSF1(1-493) fusion (assay: growth estimate (transactivation domain function in HSF1 fusion, heat-shock survival) (a.u. (slope of normalised read count over time)); higher = stronger growth at 37°C, i.e. more transactivation activity). Conditions: library: random library.

Substance	growth estimate
RQLAPIVSVAHANAMGSDNA	< -0.25
SYGGEGCWASVIELA	< -0.25
DPEQEIRRVPVGNAQCLLLH	< -0.25
IANSEHVK	< -0.25
CTSRLHQAMCRRL	< -0.25
ETVRRLRQYDQR	< -0.25
ATLRHQGGASFQGRPI	< -0.25
SLDGRVTVRSSPVPLKTRAT	< -0.25
NRLEC	< -0.25
RRSLQPAARDAHCSYSQVFA	< -0.25
PRASICYAISTIRGNLKKSL	< -0.25
HQAKLSARAMRLQFATTSLL	< -0.25
RVSFRIMRVGGGERDADREL	< -0.25
PQSSTVFLGEPRGDRHGRQN	< -0.25
CNRGDLAFRPPTRH	-0.243
PIDDATRPWKAARESSAAAP	< -0.25
GGLILPVRALSRAYCG	< -0.25
ELSPDGVTFIEEPPWSAFFD	-0.21
SRFKFAG	< -0.25
PSSASRVQAGMQMMLRPKRR	< -0.25
IEIFATIR	-0.241
AVRHLPARRGRTASVIGPCE	< -0.25
NKLPLLVLGRCVREPDAKCA	< -0.25

Substance	growth estimate
LDRYWY	-0.181
TSHKSFVHDYYNRPWSPSHG	< -0.25
RMCTRSIIMEFAL	< -0.25
GSYGCCPDRA	< -0.25
GNKKIDPHLVQLSYRQWRHT	< -0.25
IHKAMEVGKVE	< -0.25
PTMTSCS	< -0.25
LKARAWSTRLDIRVWRLWTA	< -0.25
GGTEVPTGVGRPAFRGRLMV	< -0.25
ASFHSE	0.145
EYGRATMVYALPATRCVRVR	< -0.25
DTTRAAGKWRVTRYDRPKGA	< -0.25
DTLYGPCNGSRFTSSPVH	< -0.25
VSC	< -0.25
GPHLSGRRTSRSA	< -0.25
KPCGTSPCVITERGVISPGS	< -0.25
VLGGSPGE	< -0.25
NTKLGGSGISTVYGSPTWAE	-0.243
WGTTGKAKIFS	< -0.25
RRVLRYCNGICSLNLAPWP	< -0.25
ILR	< -0.25
GKTLHWIELVRGAE	< -0.25
EDLGFDFY	< -0.25

Reformatted bar-delimited: entries from further up
Substance | growth estimate
HQAKLSARAMRLQFATTSLL | < -0.25
RVSFRIMRVGGGERDADREL | < -0.25

(next part)

Substance	growth estimate
WLYG	< -0.25
THLV	< -0.25
WVLG	< -0.25
ILSA	< -0.25
GRSVRAWVLGVTCNGAEAAA	< -0.25
FSRRRAYGVWPMKGCCHASA	< -0.25
LSLSGYVETVCADLKHQVDR	< -0.25
FRITVRK	< -0.25
AARAKCG	< -0.25
PTTLSCSGTAL	< -0.25
NRHGETSYQTVVDSAPLSIL	< -0.25
MHSAPLVGSKRIYPHLRIVR	< -0.25
GVLLVYV	< -0.25
VLKNE	< -0.25
GRCGIGVWPWHALGPAYKPS	< -0.25
PQALTF	< -0.25
GSVGLPIANAFFDTRSCR	< -0.25
YVNHYVIY	< -0.25
WYAPWILSRFCSGHPSWLVS	< -0.25
KNDYLVSCPVSLGSPCVKLG	< -0.25
GSLAIAIRTTSQ	-0.25
KRKTGFL	< -0.25
SGSVSNHGYRENY	< -0.25

Looked up above:
In growth estimate, GRSVRAWVLGVTCNGAEAAA shows < -0.25
In growth estimate, GSVGLPIANAFFDTRSCR shows < -0.25

Additional results.

Substance	growth estimate
DGLLMRA	< -0.25
WSH	-0.236
INVVDEGRPRYPACQ	< -0.25
QVTKPVMQVVWPRTGQMLFT	< -0.25
QDHYMHGLVPFSLRSKA	< -0.25
PGAWLRHGLPTPDDFEVPIV	< -0.25
YHMRRRIAL	< -0.25
LGPSPHDV	< -0.25
RLY	-0.245
TVSSVLTPSLQEFDKPFSHV	< -0.25
GPKTSERPEADWS	< -0.25
HDMF	< -0.25
YGHPRLGAIGKGDRPVAYAI	-0.25
TPLPLDPRPVSSALNRQSAL	< -0.25
LAILG	< -0.25
SEGVCLSGFTK	< -0.25
STSAVRSGMASWHSTRPNHV	< -0.25
FFSYVSNLSSDALAIREAVA	< -0.25
DVSRCRSALGRTEKP	< -0.25
GPLRLVSAIQMKACAYLRHG	< -0.25
AVAAPLVSELQIRLFPGGFL	< -0.25
AKHYSVSSTRNGEAESEDEP	< -0.25
HGFKARLSVGGGPAEWPIGS	< -0.25

Substance	growth estimate
VSGAKLSRRCRMGLPGSHRR	-0.243
LTSQVNWWTDLFWVGVFRGT	< -0.25
GCRSAWPGIQLTCSSSRKIE	< -0.25
YVSREGFDLHAGTISLWGGY	< -0.25
RGTGDAYLHRRHYIKLAWPP	< -0.25
ILIFTRYF	< -0.25
TPLKYIPWRKLYREVTATRA	< -0.25
ARLVLHLPQGSKLNTFDQSR	< -0.25
INTGTNAMGGKVRTQSGPYR	< -0.25
CLGGTVIPDHDV	-0.246
GHAG	< -0.25
HNLPGKKLLRSPVADLPHVY	< -0.25
SLLLGVKHDVNRLRPGTRS	< -0.25
PRGVRGDVNCGFYVCGTGSH	< -0.25
RELEKRVILRLTPG	< -0.25
QGHE	< -0.25
RSEAREQR	-0.229
LTQD	< -0.25
ALLSECG	< -0.25
TLSSYTA	< -0.25
PMRPVYTEGTFVG	< -0.25
DPFLVNAE	< -0.25
HRGRKAPNEATIQCRRRVQT	< -0.25

Substance	growth estimate
REKFSPVRFLGPGSLSRTAG	< -0.25
IMWWQYGRPKRN	-0.246
GHPSL	< -0.25
CKVQASFQISARPGLRHLTV	< -0.25
IRG	< -0.25
HGSNKDVGVHVV	< -0.25
REMRLRPGPVQGWAPLNTVW	< -0.25
VQQIL	< -0.25
VVQWFRHVTAPGYRSLLQAG	< -0.25
YSQDDWV	< -0.25
HQRSYSEVNRFSPFL	< -0.25
HKFVVTTEKKQGSRSHTEPL	< -0.25
RLLKGITRRLRAYSSR	< -0.25
GYCYRSCSRIASLVSEALPW	< -0.25
AVLGKKLVNRPLHRHRRATP	< -0.25
VVWQA	< -0.25
DMPVRSRYCCTPELSDCSRE	< -0.25
PCWRGCCRRLRKRRPNDVPS	< -0.25
VEHPPGGLQTFLRDGSSFAV	< -0.25
CTRAGHSSIGLLFLLSTTET	< -0.25
RRSRRSSRIPGYRMQCHTGR	< -0.25
MIRYSERLHGRAQSRGSY	< -0.25
YDCVTGSRKLPRTVWISLCP	< -0.25

Reformatted field by field: part of the list above.
DGLLMRA
  growth estimate: < -0.25
WSH
  growth estimate: -0.236
INVVDEGRPRYPACQ
  growth estimate: < -0.25
QVTKPVMQVVWPRTGQMLFT
  growth estimate: < -0.25

The listing continues:

Substance	growth estimate
LSMGTMHGC	< -0.25
CIQIEPSCS	< -0.25
WSTAIARCSG	< -0.25
PSLMSKGNLCPRVQC	< -0.25
DEFVIFIYVVASNNSAEVPT	< -0.25
SKRRPLHPSKCQVGRQETVG	< -0.25
PSCLPDSTPMARSYL	< -0.25
LITFEGPKAG	< -0.25
LGRVRTRAMP	< -0.25
QSGYAGFFFQSGLCFLFRIE	-0.235
PIR	< -0.25
KDMVVNLGLISEL	< -0.25
LVG	< -0.25
APERASKMDRAGARGCLRER	< -0.25
HSLA	< -0.25
VRSGPGYL	< -0.25
GVTGRCQVMSVLGHNGYDRR	< -0.25
EYRLR	< -0.25
VQPALRWMQAMQCDHRMIWR	< -0.25
PVRPRDAPARPCSIQGESCS	< -0.25
VSTHSPSYRNL	< -0.25

Reference: the supplement of paper PMC5949888
